Values joined by “and” are separate entries in the source; they are usually repeats but may differ in a detail not shown here. Equal values may be shown once. Where a name gives a salt, the structure may show the parent alone. ± gives the standard deviation of the averaged measurements. The list shows a part of the results. Most values come without repeats; read them as rough.
Tested on: RAW 264.7
Test: cell viability (MTT) relative to vehicle control; higher = more viable cells
Conditions: stimulus: HMGB1 5 ug/ml, 18 h
[1] = compound concentration: 1 ug/ml

Row | SMILES | cell viability (compound concentration: 3 uM) | cell viability [1]
1 | Nc1nc(OCc2ccccc2)c2nc[nH]c2n1 [O6-benzylguanine] | 101% | 
2 | OC(CN1CCN(c2cccc(Cl)c2)CC1)C(c1ccccc1)c1ccccc1 (stereo not given) | 93.8% | 
3 | CN(C)[C@@H]1C(O)=C(C(N)=O)C(=O)[C@@]2(O)C(O)=C3C(=O)c4c(O)cccc4[C@@](C)(O)[C@H]3[C@H](O)[C@@H]12 [Oxytetracycline hydrochloride] |  | 91.7%
4 | CN(C)[C@@H]1C(O)=C(C(N)=O)C(=O)[C@@]2(O)C(O)=C3C(=O)c4c(O)cccc4[C@@](C)(O)[C@H]3[C@H](O)[C@@H]12 | 112% | 
5 | CN(C)[C@@H]1C(O)=C(C(N)=O)C(=O)[C@@]2(O)C(O)=C3C(=O)c4c(O)cccc4[C@@](C)(O)[C@H]3[C@H](O)[C@@H]12 [Oxytetracycline dihydrate] | 86.5% | 
6 | COc1cc(-c2cc(=O)c3c(O)c(OC)c(OC4OC(COC5OC(C)C(O)C(O)C5O)C(O)C(O)C4O)cc3o2)ccc1O (stereo not given) [Demethoxycentaureidin 7-O-rutinoside] |  | 103%
7 | Nc1ccc(CCNc2ncnc3c2ncn3C2OC(CO)C(O)C2O)cc1 (stereo not given) [N6-2-(4-Aminophenyl)ethyladenosine] | 103% | 
8 | Oc1cc2c(cc1O)[C@@H]1c3ccc(O)c(O)c3OC[C@]1(O)C2 [Hematoxylin] |  | 95.5%
9 | CC(=O)[C@H]1CC[C@H]2[C@@H]3CC=C4C[C@@H](O)CC[C@]4(C)[C@H]3CC[C@]12C | 118% | 
10 | CC(=O)[C@H]1CC[C@H]2[C@@H]3CC=C4C[C@@H](O)CC[C@]4(C)[C@H]3CC[C@]12C [Pregnenolone] | 99.2 ± 5.3% | 
11 | COc1ccc(CC2c3cc(OC)c(OC)cc3CC[N+]2(C)CCC(=O)OCCCCCOC(=O)CC[N+]2(C)CCc3cc(OC)c(OC)cc3C2Cc2ccc(OC)c(OC)c2)cc1OC (stereo not given) [Atracurium besylate] | 116% | 
12 | COc1ccc(CC2c3cc(OC)c(OC)cc3CC[N+]2(C)CCC(=O)OCCCCCOC(=O)CC[N+]2(C)CCc3cc(OC)c(OC)cc3C2Cc2ccc(OC)c(OC)c2)cc1OC (stereo not given) | 106% | 
13 | COc1ccc(CC2c3cc(OC)c(OC)cc3CC[N+]2(C)CCC(=O)OCCCCCOC(=O)CC[N+]2(C)CCc3cc(OC)c(OC)cc3C2Cc2ccc(OC)c(OC)c2)cc1OC (stereo not given) [Atracurium] | 108% | 
14 | CN(C)c1ccc(C(=C2C=CC(=[N+](C)C)C=C2)c2ccc(N(C)C)cc2)cc1 | 32% | 
15 | O=c1ccn([C@@H]2O[C@H](COP(=O)(O)OP(=O)(O)OP(=O)(O)O)[C@@H](O)[C@H]2O)c(=O)[nH]1 [Uridine 5'-triphosphate trisodium salt hydrate] |  | 105%
16 | CC(C)c1ccc2c(c1)c(SC(C)(C)C)c(CC(C)(C)C(=O)O)n2Cc1ccc(Cl)cc1 | 89.5% and 85.9% | 
17 | CCN(CCO)CCCC(C)Nc1ccnc2cc(Cl)ccc12 (stereo not given) | 111% | 
18 | CCOC(=O)NNc1nncc2ccccc12 | 105% | 
19 | CCOC(=O)NNc1nncc2ccccc12 [Todralazine hydrochloride] | 93.3% | 
20 | CCCCN1CCCCC1C(=O)Nc1c(C)cccc1C (stereo not given) [Bupivacaine hydrochloride] | 101% | 
21 | CCCCN1CCCCC1C(=O)Nc1c(C)cccc1C (stereo not given) [Bupivacaine] | 105% | 
22 | CCCCN1CCCCC1C(=O)Nc1c(C)cccc1C (stereo not given) | 106% | 
23 | CC(COc1ccccc1)NC(C)C(O)c1ccc(O)cc1 (stereo not given) | 94.2% | 
24 | CC(COc1ccccc1)NC(C)C(O)c1ccc(O)cc1 (stereo not given) [Isoxsuprine hydrochloride] | 105% | 
25 | CC(C)(C)c1ccc(C(O)CCCN2CCC(C(O)(c3ccccc3)c3ccccc3)CC2)cc1 (stereo not given) | 82.9% | 
26 | CC(C)(C)c1ccc(C(O)CCCN2CCC(C(O)(c3ccccc3)c3ccccc3)CC2)cc1 (stereo not given) [Terfenadine] | 102 ± 7% | 
27 | COc1ccnc(C[S+]([O-])c2nc3cc(OC(F)F)ccc3[nH]2)c1OC (stereo not given) | 92% and 113% | 

Row | SMILES | cell viability (compound concentration: 3 uM) | cell viability [1]
28 | COc1ccnc(C[S+]([O-])c2nc3cc(OC(F)F)ccc3[nH]2)c1OC (stereo not given) [Pantoprazole] | 104% | 
29 | O=C(NCCO)c1ccc2c(c1)nc(Nc1cccc(Cl)c1)c1ccncc12 [CK2 Inhibitor 2] | 109% | 
30 | Nc1ccn([C@@H]2O[C@H](CO)[C@@H](O)[C@@H]2O)c(=O)n1 | 79.1 ± 8.2% | 
31 | Nc1ccn([C@@H]2O[C@H](CO)[C@@H](O)[C@@H]2O)c(=O)n1 [Cytarabine] | 96.4 ± 7.3% | 
32 | Nc1ccn([C@@H]2O[C@H](CO)[C@@H](O)[C@@H]2O)c(=O)n1 [Cytosine-1-beta-D-arabinofuranoside hydrochloride] | 79.2% | 
33 | Nc1ncnc2c1ncn2C1CCCO1 (stereo not given) | 119% | 
34 | O=c1[nH]c(=O)c2ccccc2o1 | 109% | 
35 | CO[C@H]1C[C@H](O[C@H]2[C@H](C)[C@@H](O[C@@H]3O[C@H](C)C[C@H](N(C)C)[C@H]3O)[C@@H](C)C[C@@]3(CO3)C(=O)[C@H](C)[C@@H](O)[C@@H](C)[C@@H](C)OC(=O)[C@@H]2C)O[C@@H](C)[C@@H]1O | 108 ± 5% | 
36 | Nc1ccc(S(=O)(=O)Nc2ccccn2)cc1 [Sulfapyridine] | 132% | 
37 | Nc1ccc(S(=O)(=O)Nc2ccccn2)cc1 | 102% | 
38 | O=C(O)[C@H]1O[C@@H](Oc2cc3oc(-c4ccccc4)cc(=O)c3c(O)c2O)[C@H](O)[C@@H](O)[C@@H]1O [Baicalin hydrate] |  | 77.2%
39 | N[C@@H](Cc1ccc(O)c(I)c1)C(=O)O [3-Iodo-L-tyrosine] | 97.8% | 
40 | C[N+](C)(C)[C@@H](Cc1c[nH]c(=S)[nH]1)C(=O)[O-] [Ergothioneine] | 114% | 
41 | COc1cc([C@@H]2c3cc4c(cc3[C@@H](O[C@@H]3O[C@@H]5CO[C@@H](c6cccs6)O[C@H]5[C@H](O)[C@H]3O)[C@H]3COC(=O)[C@H]23)OCO4)cc(OC)c1O | 63.6 ± 24% | 
42 | CC(C)Cn1c(=O)n(C)c(=O)c2[nH]cnc21 [3-Isobutyl-1-methylxanthine] | 102% | 
43 | OC[C@H]1O[C@@H](n2cnc3c(N[C@H]4CCC[C@@H]4O)ncnc32)[C@@H](O)C1O (stereo partly drawn) [Adenosine, N-(2-hydroxycyclopentyl)-, (1S-trans)- [CAS]] | 97.6% | 
44 | O=C1NC(=O)/C(=C/c2ccc3c(c2)OC(F)(F)O3)S1 | 102% | 
45 | CCOc1ccccc1OC(c1ccccc1)C1CNCCO1 (stereo not given) [Reboxetine mesylate] | 112% | 
46 | O=c1[nH]cnc2c1ncn2[C@@H]1O[C@H](CO)[C@@H](O)[C@H]1O | 111% | 
47 | O=c1[nH]cnc2c1ncn2[C@@H]1O[C@H](CO)[C@@H](O)[C@H]1O [Inosine] |  | 105%
48 | CN(C)CCCN1c2ccccc2Sc2ccc(Cl)cc21 [Chlorpromazine hydrochloride] | 96.5 ± 8% | 
49 | CN(C)CCCN1c2ccccc2Sc2ccc(Cl)cc21 | 98.2% | 
50 | CN(C)CCCN1c2ccccc2Sc2ccc(Cl)cc21 [Chlorpromazine] | 110% | 
51 | O=c1ccc2ccccc2o1 [Coumarin] |  | 97.1%
52 | O=c1ccc2ccccc2o1 | 110% | 
53 | COc1ccc(-c2coc3ccc(OC4OC(COC(C)=O)C(OC(C)=O)C(OC(C)=O)C4OC(C)=O)c(OC(C)=O)c3c2=O)cc1 (stereo not given) |  | 113%
54 | CNC(=O)[C@H]1O[C@@H](n2cnc3c(NCc4cccc(I)c4)nc(Cl)nc32)[C@H](O)[C@@H]1O [Chloro-IB-MECA] | 106% | 

Row | SMILES | cell viability (compound concentration: 3 uM) | cell viability [1]
55 | OCc1ccccc1O | 101% | 
56 | CCOC(=O)[C@@](C)(N)Cc1ccc(O)c(O)c1 | 112% | 
57 | CCOC(=O)[C@@](C)(N)Cc1ccc(O)c(O)c1 [Methyldopate hydrochloride] | 89.9% | 
58 | O=C(c1ccccc1)c1ccc2n1CCC2C(=O)O (stereo not given) [Ketorolac tromethamine] | 87.9% | 
59 | O=C(c1ccccc1)c1ccc2n1CCC2C(=O)O (stereo not given) | 94% and 106% | 
60 | O=C(c1ccccc1)c1ccc2n1CCC2C(=O)O (stereo not given) [Ketorolac tris salt] | 96.3% | 
61 | COc1c(N2CCNC(C)C2)c(F)cc2c(=O)c(C(=O)O)cn(C3CC3)c12 (stereo not given) | 103% | 
62 | COc1c(N2CCNC(C)C2)c(F)cc2c(=O)c(C(=O)O)cn(C3CC3)c12 (stereo not given) [Gatifloxacin] | 95.3 ± 12% | 
63 | CC(C)(O)c1ccccc1CC[C@@H](SCC1(CC(=O)O)CC1)c1cccc(/C=C/c2ccc3ccc(Cl)cc3n2)c1 | 103% and 107% | 
64 | CC(C)(O)c1ccccc1CC[C@@H](SCC1(CC(=O)O)CC1)c1cccc(/C=C/c2ccc3ccc(Cl)cc3n2)c1 [Montelukast] | 117 ± 17% | 
65 | O=C1NC(=O)C(c2ccccc2)(c2ccccc2)N1 [Phenytoin] | 114% | 
66 | O=C1NC(=O)C(c2ccccc2)(c2ccccc2)N1 [5,5-Diphenylhydantoin] | 109% | 
67 | CCN[C@@H]1C[C@H](N)[C@@H](O[C@H]2OC(CN)=CC[C@H]2N)[C@H](O)[C@H]1O[C@H]1OC[C@](C)(O)[C@H](NC)[C@H]1O | 108% | 
68 | FC(F)(F)COCC(F)(F)F | 104% | 
69 | COc1cccc2c1C(=O)CC(c1ccccc1)O2 (stereo not given) [5-Methoxyflavanone] |  | 101%
70 | CN1Cc2c(N)cccc2C(c2ccccc2)C1 (stereo not given) | 98.2% | 
71 | CN1Cc2c(N)cccc2C(c2ccccc2)C1 (stereo not given) [Nomifensine maleate] | 105 ± 16% | 
72 | COc1cc(/C=C/CO)cc(OC)c1O [Sinapyl Alcohol] |  | 112%
73 | CC(=O)Oc1cccc(C)c1 [meta-CRESYL ACETATE] | 109% | 
74 | c1ccc(CNc2ncnc3nc[nH]c23)cc1 [Aminopurine, 6-benzyl] | 100% | 
75 | C=C(C)[C@@H]1CC=C(CO)CC1 | 134% | 
76 | COc1cccc(C(=O)NCCN2CCN(c3ccc(Cl)cc3)CC2)c1 | 99% | 
77 | C[C@@H]1C(=O)NC2=Nc3cccc(Cl)c3CN21 [Quazinone] | 104% | 
78 | COC(=O)Nc1nc2cc([S+]([O-])c3ccccc3)ccc2[nH]1 (stereo not given) | 78.7% | 
79 | COC(=O)Nc1nc2cc([S+]([O-])c3ccccc3)ccc2[nH]1 (stereo not given) [Oxfendazole] | 85.9% | 
80 | COC(=O)Nc1nc2cc([S+]([O-])c3ccccc3)ccc2[nH]1 (stereo not given) [Oxfendazol] | 81.8% | 

For convenience, some entries already given:
Row | SMILES | cell viability (compound concentration: 3 uM) | cell viability [1]
65 | O=C1NC(=O)C(c2ccccc2)(c2ccccc2)N1 [Phenytoin] | 114% | 
66 | O=C1NC(=O)C(c2ccccc2)(c2ccccc2)N1 [5,5-Diphenylhydantoin] | 109% | 
67 | CCN[C@@H]1C[C@H](N)[C@@H](O[C@H]2OC(CN)=CC[C@H]2N)[C@H](O)[C@H]1O[C@H]1OC[C@](C)(O)[C@H](NC)[C@H]1O | 108% | 
